Measurements as given in paper PMC12664034, “The E3 ubiquitin ligase SPRYD3-MYCBP2(PAM) regulates mitotic cell fate and ubiquitination of USP11 to control spindle assembly” (The Journal of Biological Chemistry, 2025).
These are yes or no findings as the source states them, for the method shown. Binding seen in cells or lysates may run through a third protein. Some results given as binding are weak or reduced against the parent protein; the word gives no strength. For some assays here: Sequences can lack the tags named with a protein. One block for each molecule: values may come before it.

Amino acid sequences for entries named in this document (tags omitted). A change or cut given only in a name is not applied to a line headed by its entry.
UniProt O75592: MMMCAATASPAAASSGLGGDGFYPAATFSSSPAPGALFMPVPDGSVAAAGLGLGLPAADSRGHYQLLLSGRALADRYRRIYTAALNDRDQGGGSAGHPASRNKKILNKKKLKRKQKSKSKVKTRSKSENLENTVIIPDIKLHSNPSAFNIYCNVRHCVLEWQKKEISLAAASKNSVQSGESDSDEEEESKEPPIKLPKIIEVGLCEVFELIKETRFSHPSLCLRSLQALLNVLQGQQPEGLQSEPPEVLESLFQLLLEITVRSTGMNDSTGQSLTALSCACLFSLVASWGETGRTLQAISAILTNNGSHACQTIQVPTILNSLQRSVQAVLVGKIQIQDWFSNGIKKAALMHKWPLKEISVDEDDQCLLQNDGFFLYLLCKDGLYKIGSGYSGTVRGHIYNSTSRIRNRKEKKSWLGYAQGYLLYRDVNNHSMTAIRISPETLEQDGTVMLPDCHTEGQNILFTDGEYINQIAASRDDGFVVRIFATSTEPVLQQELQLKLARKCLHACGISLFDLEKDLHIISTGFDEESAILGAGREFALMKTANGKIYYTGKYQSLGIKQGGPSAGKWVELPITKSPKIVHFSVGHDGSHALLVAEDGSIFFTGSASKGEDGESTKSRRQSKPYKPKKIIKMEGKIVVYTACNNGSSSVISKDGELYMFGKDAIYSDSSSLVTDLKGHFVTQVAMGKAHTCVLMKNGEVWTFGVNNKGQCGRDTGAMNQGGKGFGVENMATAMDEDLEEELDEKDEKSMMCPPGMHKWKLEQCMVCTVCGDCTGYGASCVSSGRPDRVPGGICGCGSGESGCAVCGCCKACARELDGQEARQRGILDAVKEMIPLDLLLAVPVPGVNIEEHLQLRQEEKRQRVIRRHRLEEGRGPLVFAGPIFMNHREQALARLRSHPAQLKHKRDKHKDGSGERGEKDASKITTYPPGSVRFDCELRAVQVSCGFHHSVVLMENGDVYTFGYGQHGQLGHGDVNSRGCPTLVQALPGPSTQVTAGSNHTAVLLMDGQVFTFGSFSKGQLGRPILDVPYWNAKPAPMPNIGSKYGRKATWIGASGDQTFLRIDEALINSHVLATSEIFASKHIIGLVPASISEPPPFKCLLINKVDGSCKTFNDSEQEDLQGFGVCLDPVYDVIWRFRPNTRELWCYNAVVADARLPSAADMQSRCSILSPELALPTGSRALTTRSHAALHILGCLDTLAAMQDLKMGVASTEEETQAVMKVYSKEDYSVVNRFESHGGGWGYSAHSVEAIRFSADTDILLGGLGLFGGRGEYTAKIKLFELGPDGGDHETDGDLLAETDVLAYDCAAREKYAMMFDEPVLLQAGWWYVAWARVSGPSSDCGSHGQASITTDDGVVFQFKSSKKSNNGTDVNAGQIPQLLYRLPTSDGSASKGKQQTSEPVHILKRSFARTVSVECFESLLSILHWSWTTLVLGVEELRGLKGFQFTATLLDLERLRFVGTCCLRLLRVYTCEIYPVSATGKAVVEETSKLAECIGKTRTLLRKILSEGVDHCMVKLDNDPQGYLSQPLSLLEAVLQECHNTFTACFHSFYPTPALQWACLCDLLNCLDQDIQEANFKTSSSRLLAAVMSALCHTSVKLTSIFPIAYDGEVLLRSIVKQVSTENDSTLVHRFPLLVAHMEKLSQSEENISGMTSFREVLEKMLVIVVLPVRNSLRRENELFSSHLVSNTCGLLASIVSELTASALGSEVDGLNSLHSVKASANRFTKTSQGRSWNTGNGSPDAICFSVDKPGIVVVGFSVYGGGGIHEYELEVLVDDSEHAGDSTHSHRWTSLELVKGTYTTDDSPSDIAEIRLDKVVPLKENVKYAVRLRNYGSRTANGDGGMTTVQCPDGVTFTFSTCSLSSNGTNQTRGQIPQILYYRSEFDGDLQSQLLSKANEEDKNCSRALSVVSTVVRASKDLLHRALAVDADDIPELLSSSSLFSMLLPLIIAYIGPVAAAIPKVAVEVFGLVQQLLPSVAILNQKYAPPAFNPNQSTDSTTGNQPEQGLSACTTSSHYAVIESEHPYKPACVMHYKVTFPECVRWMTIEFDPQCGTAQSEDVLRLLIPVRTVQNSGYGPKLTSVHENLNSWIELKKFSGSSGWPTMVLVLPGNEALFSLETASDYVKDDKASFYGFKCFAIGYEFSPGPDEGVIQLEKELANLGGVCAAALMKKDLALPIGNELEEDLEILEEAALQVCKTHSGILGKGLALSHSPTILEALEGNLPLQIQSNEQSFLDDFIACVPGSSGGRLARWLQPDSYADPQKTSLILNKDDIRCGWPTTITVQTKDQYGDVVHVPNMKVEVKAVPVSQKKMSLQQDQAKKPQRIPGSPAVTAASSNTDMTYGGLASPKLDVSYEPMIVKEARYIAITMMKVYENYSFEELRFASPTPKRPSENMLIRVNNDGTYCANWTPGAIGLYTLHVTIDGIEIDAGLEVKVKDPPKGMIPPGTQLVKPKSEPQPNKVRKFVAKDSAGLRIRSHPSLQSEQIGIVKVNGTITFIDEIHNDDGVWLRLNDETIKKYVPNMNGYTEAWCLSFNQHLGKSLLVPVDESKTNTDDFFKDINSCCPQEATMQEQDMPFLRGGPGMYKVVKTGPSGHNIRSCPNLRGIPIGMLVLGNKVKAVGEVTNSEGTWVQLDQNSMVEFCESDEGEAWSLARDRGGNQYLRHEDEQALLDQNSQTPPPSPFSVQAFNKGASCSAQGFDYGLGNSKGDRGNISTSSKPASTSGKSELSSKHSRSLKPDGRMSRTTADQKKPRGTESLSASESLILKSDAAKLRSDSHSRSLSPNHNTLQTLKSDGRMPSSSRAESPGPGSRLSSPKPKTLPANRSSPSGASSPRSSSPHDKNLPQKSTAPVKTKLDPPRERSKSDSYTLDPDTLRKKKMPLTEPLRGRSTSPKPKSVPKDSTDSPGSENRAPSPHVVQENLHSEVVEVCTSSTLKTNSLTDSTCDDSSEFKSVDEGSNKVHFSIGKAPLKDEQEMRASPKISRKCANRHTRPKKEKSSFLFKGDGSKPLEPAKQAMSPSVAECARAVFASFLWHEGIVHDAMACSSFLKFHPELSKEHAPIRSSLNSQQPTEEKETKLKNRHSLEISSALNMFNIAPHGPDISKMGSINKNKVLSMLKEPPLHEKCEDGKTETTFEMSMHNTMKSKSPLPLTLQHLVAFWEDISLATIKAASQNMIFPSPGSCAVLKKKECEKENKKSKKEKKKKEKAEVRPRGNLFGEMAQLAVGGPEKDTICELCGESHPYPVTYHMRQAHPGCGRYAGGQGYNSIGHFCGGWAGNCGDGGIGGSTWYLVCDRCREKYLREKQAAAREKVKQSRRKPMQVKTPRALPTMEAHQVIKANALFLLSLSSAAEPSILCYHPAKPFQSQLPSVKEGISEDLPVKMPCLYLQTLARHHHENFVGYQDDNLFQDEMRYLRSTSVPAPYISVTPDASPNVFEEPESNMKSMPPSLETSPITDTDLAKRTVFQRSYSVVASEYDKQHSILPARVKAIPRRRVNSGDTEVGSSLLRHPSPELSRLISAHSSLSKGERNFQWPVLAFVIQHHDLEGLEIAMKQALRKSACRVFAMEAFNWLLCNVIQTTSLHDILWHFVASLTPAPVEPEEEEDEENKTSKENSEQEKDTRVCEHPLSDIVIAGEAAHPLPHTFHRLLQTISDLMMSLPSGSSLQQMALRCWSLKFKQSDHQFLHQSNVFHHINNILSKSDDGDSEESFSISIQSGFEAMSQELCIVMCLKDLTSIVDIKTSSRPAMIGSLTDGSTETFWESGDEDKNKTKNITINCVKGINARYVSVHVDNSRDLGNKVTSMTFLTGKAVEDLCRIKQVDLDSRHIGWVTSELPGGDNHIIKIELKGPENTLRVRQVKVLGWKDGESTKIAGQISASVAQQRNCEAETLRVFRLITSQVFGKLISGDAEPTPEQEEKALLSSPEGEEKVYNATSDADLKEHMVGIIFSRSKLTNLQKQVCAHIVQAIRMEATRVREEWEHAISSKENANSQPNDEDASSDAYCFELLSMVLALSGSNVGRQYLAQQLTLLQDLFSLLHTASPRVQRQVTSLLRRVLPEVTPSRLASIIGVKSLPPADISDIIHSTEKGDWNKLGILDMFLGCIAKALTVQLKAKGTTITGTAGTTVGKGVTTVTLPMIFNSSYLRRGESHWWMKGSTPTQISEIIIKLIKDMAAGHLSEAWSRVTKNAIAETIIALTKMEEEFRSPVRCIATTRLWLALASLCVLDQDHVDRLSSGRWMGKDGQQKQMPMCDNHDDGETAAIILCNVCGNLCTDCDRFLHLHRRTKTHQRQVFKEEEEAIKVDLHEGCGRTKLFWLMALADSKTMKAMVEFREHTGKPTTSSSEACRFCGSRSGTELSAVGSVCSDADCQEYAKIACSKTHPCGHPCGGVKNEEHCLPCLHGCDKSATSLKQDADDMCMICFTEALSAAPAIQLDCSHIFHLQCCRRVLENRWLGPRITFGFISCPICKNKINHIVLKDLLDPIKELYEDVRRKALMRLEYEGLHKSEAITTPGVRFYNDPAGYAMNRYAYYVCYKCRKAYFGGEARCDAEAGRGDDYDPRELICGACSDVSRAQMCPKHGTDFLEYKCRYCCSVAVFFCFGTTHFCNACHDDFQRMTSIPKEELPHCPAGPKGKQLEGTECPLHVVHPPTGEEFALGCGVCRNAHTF
UniProt P51784: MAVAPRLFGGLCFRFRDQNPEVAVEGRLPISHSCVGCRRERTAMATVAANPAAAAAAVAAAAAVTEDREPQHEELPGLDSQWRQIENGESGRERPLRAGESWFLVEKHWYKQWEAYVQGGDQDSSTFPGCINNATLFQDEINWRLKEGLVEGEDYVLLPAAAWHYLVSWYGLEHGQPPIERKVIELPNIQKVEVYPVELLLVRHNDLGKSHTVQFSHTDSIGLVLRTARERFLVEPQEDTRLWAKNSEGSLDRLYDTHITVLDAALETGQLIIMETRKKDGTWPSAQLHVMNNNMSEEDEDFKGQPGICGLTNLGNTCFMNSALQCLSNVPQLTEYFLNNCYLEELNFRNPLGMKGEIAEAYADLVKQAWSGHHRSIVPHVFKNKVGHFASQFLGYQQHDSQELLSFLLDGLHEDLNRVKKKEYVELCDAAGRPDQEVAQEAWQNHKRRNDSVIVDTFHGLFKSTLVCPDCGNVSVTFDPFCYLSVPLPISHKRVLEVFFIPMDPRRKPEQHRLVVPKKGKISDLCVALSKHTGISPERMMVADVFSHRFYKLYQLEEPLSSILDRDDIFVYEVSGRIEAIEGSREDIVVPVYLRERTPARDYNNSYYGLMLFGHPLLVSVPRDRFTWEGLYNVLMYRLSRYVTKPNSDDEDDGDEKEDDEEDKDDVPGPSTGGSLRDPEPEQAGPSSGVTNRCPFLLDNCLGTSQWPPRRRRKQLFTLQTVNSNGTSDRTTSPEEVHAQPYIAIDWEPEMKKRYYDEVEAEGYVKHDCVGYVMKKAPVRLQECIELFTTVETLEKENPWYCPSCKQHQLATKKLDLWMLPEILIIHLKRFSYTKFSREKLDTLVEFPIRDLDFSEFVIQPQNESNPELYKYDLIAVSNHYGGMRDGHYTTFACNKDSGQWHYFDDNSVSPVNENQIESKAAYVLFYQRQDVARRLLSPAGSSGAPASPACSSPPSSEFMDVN

Assays:
Flag-FBXO45 = target: T1, Flag-FBXO45 (UniProt P0C2W1); test: co-IP; co-transfected HEK293T WT (also ΔFBXO45) cells, 24 h or 48 h; NP-40 buffer lysate; Flag-M2 beads at 4 °C overnight; elution with 3x Flag peptide; Western blot
T1 sequence: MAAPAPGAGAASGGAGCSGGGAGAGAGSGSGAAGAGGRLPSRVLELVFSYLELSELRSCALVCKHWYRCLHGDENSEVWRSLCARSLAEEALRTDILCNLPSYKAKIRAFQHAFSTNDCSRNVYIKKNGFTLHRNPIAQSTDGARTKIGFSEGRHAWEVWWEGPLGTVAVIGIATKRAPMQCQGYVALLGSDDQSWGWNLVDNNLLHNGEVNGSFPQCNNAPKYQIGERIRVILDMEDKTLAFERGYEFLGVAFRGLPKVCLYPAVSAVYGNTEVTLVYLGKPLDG

Flag-SPRYD3 = target: T2, Flag-SPRYD3 (UniProt Q8NCJ5); test: as above
T2 sequence: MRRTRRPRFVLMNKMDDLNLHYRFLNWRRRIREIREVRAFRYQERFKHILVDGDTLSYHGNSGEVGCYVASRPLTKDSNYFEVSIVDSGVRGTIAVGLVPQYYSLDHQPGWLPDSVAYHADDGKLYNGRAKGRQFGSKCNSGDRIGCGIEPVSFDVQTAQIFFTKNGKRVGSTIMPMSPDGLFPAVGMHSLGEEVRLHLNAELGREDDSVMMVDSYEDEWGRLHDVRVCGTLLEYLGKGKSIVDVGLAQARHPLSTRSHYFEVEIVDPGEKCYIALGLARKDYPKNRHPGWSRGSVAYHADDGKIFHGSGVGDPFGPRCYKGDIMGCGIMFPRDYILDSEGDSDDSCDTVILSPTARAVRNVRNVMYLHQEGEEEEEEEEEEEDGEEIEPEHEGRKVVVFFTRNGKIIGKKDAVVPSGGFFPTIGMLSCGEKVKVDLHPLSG

MYC-SPRYD3 = target: T3, MYC-SPRYD3 (UniProt Q8NCJ5); test: co-IP; two consecutive immunoprecipitations from co-transfected HEK293T WT cells (24 h, 10 μM MG132 5 h before harvest): Flag-IP, elution, then anti-MYC antibody with G-sepharose; Western blot
T3 sequence: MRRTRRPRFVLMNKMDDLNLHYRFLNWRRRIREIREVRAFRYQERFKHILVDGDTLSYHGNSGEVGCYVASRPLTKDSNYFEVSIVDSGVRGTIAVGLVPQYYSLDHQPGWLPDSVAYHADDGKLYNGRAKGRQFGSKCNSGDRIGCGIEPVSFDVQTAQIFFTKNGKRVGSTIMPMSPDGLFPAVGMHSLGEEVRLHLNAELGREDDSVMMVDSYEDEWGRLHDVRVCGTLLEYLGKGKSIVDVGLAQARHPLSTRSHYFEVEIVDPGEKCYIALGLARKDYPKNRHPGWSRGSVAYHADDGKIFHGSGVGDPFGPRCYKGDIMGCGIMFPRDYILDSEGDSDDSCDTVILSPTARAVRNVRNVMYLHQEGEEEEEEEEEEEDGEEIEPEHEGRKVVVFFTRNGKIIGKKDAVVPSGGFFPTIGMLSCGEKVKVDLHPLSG

[1] = target: T4, endogenous SPRYD3 (human (endogenous in HEK293T)) (UniProt Q8NCJ5); test: co-IP; endogenous proteins; HEK293T WT lysates (10 μM MG132 5 h before harvest) with anti-SPRYD3 or anti-IgG antibody overnight, protein A sepharose; washed with NP-40 buffer adjusted to 400 mM NaCl; Western blot
T4 sequence: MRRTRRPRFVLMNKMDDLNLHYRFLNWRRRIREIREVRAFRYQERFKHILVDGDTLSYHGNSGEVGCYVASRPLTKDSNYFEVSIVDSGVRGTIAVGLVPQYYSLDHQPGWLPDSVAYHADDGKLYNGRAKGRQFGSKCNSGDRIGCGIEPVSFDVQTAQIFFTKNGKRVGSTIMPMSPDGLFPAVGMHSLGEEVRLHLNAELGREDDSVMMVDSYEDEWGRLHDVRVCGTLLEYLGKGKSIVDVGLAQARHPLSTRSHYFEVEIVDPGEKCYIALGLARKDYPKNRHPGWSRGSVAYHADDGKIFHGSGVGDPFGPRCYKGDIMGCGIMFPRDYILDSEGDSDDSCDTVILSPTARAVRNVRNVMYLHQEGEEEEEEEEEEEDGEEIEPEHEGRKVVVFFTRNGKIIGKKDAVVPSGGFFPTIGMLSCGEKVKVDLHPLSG

[2] = target: MYCBP2 (construct of Fig. S1G not shown) (UniProt O75592); test: co-IP; mapping experiments of Fig. S1E, S1F, S1G and S3 with Flag-tagged MYCBP2 fragments and SPRYD3 deletion mutants; legends in the supplement, not shown

binding (Flag-FBXO45): binds | binding (Flag-SPRYD3): binds
Molecule: MYC-USP11 (from UniProt P51784 1-963) (enzyme)

binding [1]: binds
Molecule: endogenous MYCBP2 (from UniProt O75592 1-4678)

The remaining lines, values behind:

Molecule: GFP-USP11 (from UniProt P51784 1-963) (enzyme)
binding (MYC-SPRYD3): binds

B1: MBP-SPRYD3 (natural protein, UniProt Q8NCJ5 1-442, looked up)
chain: MRRTRRPRFVLMNKMDDLNLHYRFLNWRRRIREIREVRAFRYQERFKHILVDGDTLSYHGNSGEVGCYVASRPLTKDSNYFEVSIVDSGVRGTIAVGLVPQYYSLDHQPGWLPDSVAYHADDGKLYNGRAKGRQFGSKCNSGDRIGCGIEPVSFDVQTAQIFFTKNGKRVGSTIMPMSPDGLFPAVGMHSLGEEVRLHLNAELGREDDSVMMVDSYEDEWGRLHDVRVCGTLLEYLGKGKSIVDVGLAQARHPLSTRSHYFEVEIVDPGEKCYIALGLARKDYPKNRHPGWSRGSVAYHADDGKIFHGSGVGDPFGPRCYKGDIMGCGIMFPRDYILDSEGDSDDSCDTVILSPTARAVRNVRNVMYLHQEGEEEEEEEEEEEDGEEIEPEHEGRKVVVFFTRNGKIIGKKDAVVPSGGFFPTIGMLSCGEKVKVDLHPLSG
notes: SPRYD3; pMal-c2-MBP-SPRYD3; also called recombinant SPRYD3; source: E. coli Rosetta (DE3), purified (Amylose resin)
binding [2]: binds
